Values from PubChem BioAssay AID652243 (Drosophila RNAi Screening Center, 2013)
The deposit covers about 24,000 reagents; shown is an unselected part of those that have a named target and a result. In the full data, 246 (1%) were called active. 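Plates not normalised; calls are printed but the firefly/Renilla ratio behind them is not deposited; fold cut for lowering reported inconsistently.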 Raw values are not corrected between plates. Reagent sequences are not shown. The record does not give: the amount of reagent.

Assay: 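Knock-downs that decrease or increase androgen receptor reporter signal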 (primary screen)
Cells: Drosophila S2R+ cells
Knock-down reagent: long dsRNA against Drosophila genes
Time to read-out: 72 h (48 h, then 24 h hormone)
Challenge: synthetic androgen R1881 at 10 nM for 24 h
Measurement: 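Firefly light from an androgen-responsive reporter and Renilla control light per well, raw and unnormalised, for each of two replicates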
Direction: firefly reporter light: higher = more light from androgen-responsive reporter; Renilla control light: higher = more constitutive control signal (cell number, transfection)
Call rule: 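Hit when the log firefly-to-Renilla ratio dropped or increased by a fixed fold versus the mean of GFP or LacZ controls across duplicate plates; lowering cut given as 1.5 and as 3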
Meaning of the calls: active = hit: reporter lowered or raised; inactive = no hit

no.	target	dsRNA	firefly reporter light, replicate 1	firefly reporter light, replicate 2	Renilla control light, replicate 1	Renilla control light, replicate 2	Call
1	CG4815 (GeneID 43360)	DRSC15653	2.13e5	2.10e5	1.99e6	3.31e6	inactive
2	tpr (GeneID 37486)	DRSC04468	1.17e6	6.49e5	1.43e6	9.12e5	inactive
3	tpr (GeneID 37486)	DRSC28107	4.82e5	8.03e5	1.10e6	1.23e6	inactive
4	Bub1 (GeneID 33758)	DRSC23158	5.70e5	7.39e5	1.05e6	1.26e6	inactive
5	Bub1 (GeneID 33758)	DRSC27436	3.03e5	3.58e5	6.23e5	6.37e5	inactive
6	Bub1 (GeneID 33758)	DRSC36838					inactive
7	Bub1 (GeneID 33758)	DRSC36839					inactive
8	CG44774 (GeneID 31424)	DRSC18342	1.48e5	1.99e5	1.66e6	2.11e6	inactive
9	CG44774 (GeneID 31424)	DRSC27595	3.89e5	3.14e5	3.59e5	5.80e5	inactive
10	CG10019 (GeneID 33600)	DRSC24959	7.42e5	8.44e5	9.92e5	1.05e6	inactive
11	CG10019 (GeneID 33600)	DRSC39008	3.30e5	4.28e5	1.68e6	1.49e6	inactive
12	cas (GeneID 44018)	DRSC12373	49791	86520	1.56e6	1.83e6	inactive
13	cas (GeneID 44018)	DRSC24858	6.91e5	1.02e6	6.53e5	6.70e5	inactive
14	cas (GeneID 44018)	DRSC38957	7.41e5	8.52e5	1.64e6	1.40e6	inactive
15	CG17707 (GeneID 5740408)	DRSC20650	2.05e5	2.20e5	5.74e5	5.51e5	inactive
16	ed (GeneID 33619)	DRSC00350	5.76e5	6.41e5	1.98e6	1.94e6	inactive
17	ed (GeneID 33619)	DRSC00438	1.49e5	93281	9.15e5	6.50e5	inactive
18	ed (GeneID 33619)	DRSC00439	1.42e5	1.00e5	9.33e5	8.28e5	inactive
19	ed (GeneID 33619)	DRSC00478	1.17e5	95324	8.61e5	8.73e5	inactive
20	MED26 (GeneID 43816)	DRSC17126	1.06e6	1.14e6	1.20e6	8.70e5	inactive
21	MED26 (GeneID 43816)	DRSC17147	5.07e5	3.62e5	2.71e6	1.88e6	inactive
22	MED26 (GeneID 43816)	DRSC17148	1.93e5	1.33e5	3.23e5	2.56e5	inactive
23	CG4198 (GeneID 31445)	DRSC18354	1.21e5	62088	1.02e6	4.77e5	inactive
24	CG4198 (GeneID 31445)	DRSC26635	3.05e5	3.40e5	7.90e5	7.91e5	inactive
25	Rh7 (GeneID 39389)	DRSC10529	8.93e5	7.29e5	1.34e6	1.18e6	inactive
26	Rh7 (GeneID 39389)	DRSC28331	3.39e5	9.52e5	6.21e5	1.00e6	inactive
27	crok (GeneID 34646)	DRSC02593	2.92e5	2.96e5	2.79e6	3.15e6	inactive
28	crok (GeneID 34646)	DRSC21349	7.27e5	5.36e5	1.85e6	2.27e6	inactive
29	crok (GeneID 34646)	DRSC29822	5.19e5	5.15e5	1.24e6	1.38e6	inactive
30	CG7829 (GeneID 43522)	DRSC16322	1.28e5	99437	1.49e6	1.87e6	inactive
31	CG7829 (GeneID 43522)	DRSC28615	4.79e5	4.56e5	1.52e6	1.44e6	inactive
32	SdhB (GeneID 35590)	DRSC05018	5.92e5	8.46e5	1.73e6	2.43e6	inactive
33	SdhB (GeneID 35590)	DRSC21367	5.43e5	4.50e5	4.84e5	4.38e5	inactive
34	defl (GeneID 39141)	DRSC10300	9.99e5	8.45e5	1.37e6	1.48e6	inactive
35	Tektin-A (GeneID 34934)	DRSC01921	8.34e5	7.81e5	2.12e6	2.45e6	inactive
36	dy (GeneID 32130)	DRSC20325	3.77e5	3.66e5	4.03e6	3.57e6	inactive
37	dy (GeneID 32130)	DRSC25539	5.42e5	4.42e5	4.82e5	5.57e5	inactive
38	CG8677 (GeneID 35397)	DRSC03107	4.99e5	4.96e5	2.53e6	2.03e6	active
39	CG8677 (GeneID 35397)	DRSC23559	8.47e5	8.55e5	9.29e5	9.08e5	inactive
40	qkr58E-3 (GeneID 37559)	DRSC04711	7.93e5	7.05e5	9.60e5	1.12e6	inactive
41	bin3 (GeneID 35552)	DRSC04919	2.88e5	2.25e5	1.71e6	1.97e6	inactive
42	CG31248 (GeneID 40853)	DRSC22722	6.83e5	7.75e5	1.01e6	1.37e6	inactive
43	Achl (GeneID 36605)	DRSC06665	66987	67356	6.80e5	6.80e5	inactive
44	Achl (GeneID 36605)	DRSC29366	4.04e5	4.47e5	1.17e6	1.17e6	inactive
45	OtopLc (GeneID 7354434)	DRSC18082	1.95e5	3.00e5	2.02e6	1.83e6	inactive
46	OtopLc (GeneID 7354434)	DRSC18083	34110	23226	5.33e5	6.22e5	inactive
47	OtopLc (GeneID 7354434)	DRSC18132	2.13e5	2.41e5	3.59e6	2.95e6	inactive
48	OtopLc (GeneID 7354434)	DRSC25719	7.71e5	7.90e5	7.71e5	7.12e5	inactive
49	OtopLc (GeneID 7354434)	DRSC25756	1.24e6	1.03e6	9.58e5	6.95e5	inactive
50	OtopLc (GeneID 7354434)	DRSC28477	3.15e5	7.07e5	4.07e5	1.02e6	inactive
51	snRNA:U12 (GeneID 3772091)	DRSC37892	6.71e5	6.26e5	1.26e6	1.19e6	inactive
52	Naxe (GeneID 31944)	DRSC18251	2.16e5	4.78e5	2.91e6	3.35e6	inactive
53	O-fut2 (GeneID 31098)	DRSC18608	69308	61967	7.04e5	3.81e5	inactive
54	Gr58a (GeneID 117344)	DRSC03910	1.51e5	2.32e5	3.89e5	4.28e5	inactive
55	Eato (GeneID 34783)	DRSC01891	1.17e6	9.24e5	1.99e6	2.15e6	inactive
56	Eato (GeneID 34783)	DRSC03061	3.11e5	3.16e5	1.41e6	1.58e6	inactive
57	sle (GeneID 41262)	DRSC14557	76549	24105	8.43e5	4.44e5	inactive
58	soti (GeneID 41748)	DRSC16432	85148	1.20e5	7.57e5	1.13e6	inactive
59	soti (GeneID 41748)	DRSC28682	3.76e5	3.94e5	1.36e6	1.41e6	inactive
